# Experimental data published in PubChem BioAssay AID445 (National Center for Advancing Translational Sciences (NCATS), 2006).
# This is one part of the list. Further columns of the screen follow, without active or inactive calls. Compounds called inactive in the main read-out are mostly missing here. Potencies come from curve fits of mixed quality, noted in brackets.
# Assay: IkB Signaling
# Conditions: ABC-DLBCL IkBa-CBG/CBR dual luciferase ratio (green luciferase fused to IkBa over red control in OCI-Ly3 lymphoma cells), 4 h
# Procedure, shortened: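 Luminescence ratio of IκBα-fused green versus native red beetle luciferase in OCI-Ly3 cells, 4 h post-doxycycline with compound; red signal alone, scaled from basal (0%) to zero light (-100%), flagged nonspecific or cytotoxic effects.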
# [1] = measured here: control luc red channel unless noted
# [2] = measured here: IkB-luc green channel
# [3] = measured here: control luc red channel
compound,measurement,setting,value
CN1CCC[C@@H]1CCO[C@](C)(c1ccccc1)c1ccc(Cl)cc1,AC50,[1],"31.6 µM [falling, partial curve, poor fit]"
O=c1c(N2CCN(c3cccc(Cl)c3)CC2)csc2ccccc12,AC50,[1],"3.98 µM [falling, full curve]"
Cc1cc(C)cc(NC(=O)C(=O)NCCCN2CCOCC2)c1,AC50,[1],"12.6 µM [falling, partial curve]"
CCN(CC)S(=O)(=O)c1ccc(Nc2nc3ccccc3n3nnnc23)cc1,AC50,[1],"0.0398 µM [falling, full curve]"
CCOc1ccccc1C(=O)Nc1cc(Cl)ccc1O,AC50,[1],"3.98 µM [falling, full curve] [measured here: IkB-luc green channel]"
CC1CCCCN1CCCNC(=O)c1ccc2c(c1)sc1nc(-c3ccc(F)cc3)cn12 (stereo not drawn),AC50,[1],"31.6 µM [falling, single point]"
CCc1ccc(Oc2c(C(F)(F)F)oc3c(CN4CCN(CC)CC4)c(O)ccc3c2=O)cc1,AC50,[1],"5.01 µM [falling, partial curve, poor fit]"
COc1ccc(C(=O)NCC(c2ccc(N(C)C)cc2)N2CCCC2)cc1 (stereo not drawn),AC50,[1],"0.01 µM [falling, full curve, poor fit]"
CC(=O)c1ccc(N2CCN(c3nc4c(S(=O)(=O)c5ccc(C)c(C)c5)nnn4c4ccc(Cl)cc34)CC2)cc1,AC50,[1],"0.00631 µM [falling, full curve, poor fit]"
Cc1cc(C)cc(-n2ccnc2SCC(=O)Nc2ccc(C)cc2C)c1,AC50,[1],"39.8 µM [falling, partial curve]"
O=C(CCCn1c(=O)c2ccccc2n(CC(=O)Nc2cccc(Cl)c2)c1=O)NCc1ccc2c(c1)OCO2,AC50,[1],"15.8 µM [falling, partial curve]"
CCC(C(=O)Nc1cc(OC)ccc1OC)n1c(=O)c(C(F)(F)F)nc2ccccc21 (stereo not drawn),AC50,[1],"20 µM [falling, partial curve]"
Cc1c(NC(=O)c2cc(-n3cnnc3)ccc2Cl)cccc1-c1nc2ccccc2o1,AC50,[1],"0.794 µM [falling, full curve]"
COCCn1c(C)cc(O)c(C(c2ccc(Cl)cc2)N2CCN(c3ccccc3)CC2)c1=O (stereo not drawn),AC50,[1],"15.8 µM [falling, partial curve]"
CN1C(C(=O)c2ccccc2)=C(NC(=O)c2ccccc2Br)c2ccccc2S1(=O)=O,AC50,[1],"15.8 µM [falling, partial curve]"
OC[C@@H]1O[C@@H](n2cnc3c(NC4CCCCC4)ncnc32)[C@@H](O)[C@H]1O,AC50,[1],"1.58 µM [rising, full curve] [measured here: IkB-luc green channel]"
CCc1ccc(NC(=O)Cc2csc(COc3cccc(C)c3)n2)cc1,AC50,[1],"7.94 µM [falling, partial curve]"
Cc1nc2ccc(S(=O)(=O)NC(C(=O)N3CCN(c4ccc(Cl)cc4)CC3)C(C)C)cc2s1 (stereo not drawn),AC50,[1],"25.1 µM [falling, single point]"
O=C(CSc1nnc(Cc2cccs2)n1Cc1ccco1)Nc1ccc(Br)cc1,AC50,[2],"25.1 µM [falling, partial curve]"
same,AC50,[3],"15.8 µM [falling, partial curve]"
CCn1c(=O)cc(SCC(=O)NCCc2cccc(C)c2)c2ccccc21,AC50,[1],"25.1 µM [falling, single point]"
COc1ccc(-c2cc(C(C)=O)c(C)n2CCC(=O)Nc2ccc(C)cc2Cl)cc1,AC50,[1],"0.0794 µM [rising, full curve]"
Cc1ccc(C)c(OCCn2cc(C(=O)c3cccs3)c3ccccc32)c1,AC50,[1],"3.16 µM [falling, full curve]"
Cc1cc(C)n(-c2ccc(C(=O)OCC(=O)c3c(N)n(C)c(=O)n(C)c3=O)cc2)n1,AC50,[1],"20 µM [falling, single point]"
Cc1cccc(C(=O)N2CCc3cc(CNC(=O)c4ccc(Br)o4)ccc32)c1,AC50,[1],"7.94 µM [falling, partial curve]"
COCc1cc(C)nc2sc(C(=O)Nc3ccc(OC(F)(F)F)cc3)c(N)c12,AC50,[1],"0.794 µM [falling, full curve, poor fit]"
Cc1c(C(=O)OCC2CCCCC2)[nH]c2c1C(=O)CC(c1ccc(F)cc1)C2 (stereo not drawn),AC50,[1],"1 µM [rising, partial curve]"
COc1cc(CCC(=O)OCc2nnc(-c3ccccc3)o2)cc(OC)c1OC,AC50,[1],"5.01 µM [falling, partial curve]"
COc1ccccc1CNC(=O)CCc1c(C)nc2c(c(C)nn2-c2ccc(C)c(C)c2)c1C,AC50,[1],"15.8 µM [falling, partial curve]"
CC(C)(C)OC(=O)N1CCC(c2c(C(=O)NCc3ccccc3)cnn2-c2ccccc2)CC1,AC50,[1],"31.6 µM [falling, partial curve]"
Cc1cccc(Nc2c(-c3cccs3)nc3nc(C)cc(C)n23)c1,AC50,[1],"39.8 µM [falling, single point]"
CCc1ccc(CNC(=O)c2cc3c(=O)n(CC)c4ccccc4c3s2)cc1,AC50,[1],"2.51 µM [falling, partial curve]"
COc1ccc(OC)c(NC(=O)Cn2c(=O)n(CC3CCCO3)c(=O)c3cc(OC)c(OC)cc32)c1 (stereo not drawn),AC50,[1],"0.794 µM [rising, full curve]"
CCc1ccc(NC(=O)CSc2nc3c(sc4ccccc43)c(=O)n2CCCOC)cc1,AC50,[1],"3.98 µM [rising, partial curve]"
Cc1ccc(CNC(=O)c2cnc(N3CCCCC3)c3ccccc23)cc1,AC50,[1],"31.6 µM [falling, single point]"
O=C(c1ccc2c(c1)CCN2S(=O)(=O)c1ccccc1)N1CCN(c2cccc(Cl)c2)CC1,AC50,[1],"7.94 µM [falling, partial curve]"
COc1ccc(CCNC(=O)c2cc3sc(Cl)cc3n2C)cc1OC,AC50,[1],"39.8 µM [falling, single point]"
COC(=O)c1cccc(Nc2c(-c3ccc(OC)cc3)nc3nc[nH]n23)c1,AC50,[2],"39.8 µM [rising, single point]"
same,AC50,[3],"0.0501 µM [rising, partial curve, poor fit]"
O=S1(=O)C=C(Sc2nc3ccccc3s2)c2ccccc21,AC50,[2],"10 µM [falling, partial curve]"
same,AC50,[3],"0.794 µM [falling, partial curve]"
CCOC(=O)c1ccc(NC(=O)C(CC)Sc2nnc3c4ccccc4n(C)c3n2)cc1 (stereo not drawn),AC50,[1],"6.31 µM [falling, partial curve, poor fit]"
COc1ccc(S(=O)(=O)N2CCC(n3cnc4cc(C(F)(F)F)ccc43)CC2)cc1,AC50,[1],"25.1 µM [falling, partial curve]"
Cc1ccc(Cl)cc1-n1ncc2c(NC3CCCCC3)ncnc21,AC50,[1],"3.98 µM [falling, partial curve]"
CC(C)NC(=O)c1cc(-c2ccc(Br)cc2)on1,AC50,[1],"10 µM [falling, partial curve]"
CCOC(=O)C1CCCN(S(=O)(=O)c2ccc3c(c2)CCN3C(=O)CC)C1 (stereo not drawn),AC50,[1],"15.8 µM [falling, partial curve]"
O=C(CSc1nncn2c1cc1occc12)Nc1ccccc1C(F)(F)F,AC50,[1],"15.8 µM [falling, partial curve]"
Cc1cccc2sc(N3CCN(C(=O)CS(=O)(=O)c4ccc(F)cc4)CC3)nc12,AC50,[1],"39.8 µM [falling, partial curve]"
CCOC(=O)c1c(C)[nH]c(CCC(=O)Nc2c(Cl)cc(OC)cc2OC)c1C,AC50,[1],"5.01 µM [falling, partial curve]"
Cc1c(Cl)ccc2c1NC(=O)[C@]21[C@@H]2C(=O)N(Cc3ccccc3)C(=O)[C@@H]2[C@@H]2CCCN21,AC50,[1],"12.6 µM [falling, partial curve]"
CCc1ccc(S(=O)(=O)c2cnc3ccc(OC)cc3c2N2CCCC(C)C2)cc1 (stereo not drawn),AC50,[1],"25.1 µM [falling, single point]"
Cc1cc(C(=O)N2CCN(c3ccc(F)cc3)CC2)c2c(C)nn(-c3cccc(Cl)c3C)c2n1,AC50,[1],"15.8 µM [falling, partial curve]"
COc1ccccc1-c1cc(N)n(S(=O)(=O)c2ccc(F)c(C)c2)n1,AC50,[1],"2.51 µM [falling, full curve]"
CC(C)(C)OC(=O)N[C@@H](Cc1ccccc1)c1nnc(S(=O)(=O)Cc2ccccc2)o1,AC50,[1],"5.01 µM [falling, partial curve]"
O=C(c1cc(-c2ccncc2)nc2ccc(Cl)cc12)N1CCN(C(=O)C2CCCO2)CC1 (stereo not drawn),AC50,[1],"7.94 µM [falling, partial curve]"
COc1ccc(N(CC(=O)Nc2cccc(SC)c2)S(C)(=O)=O)cc1Cl,AC50,[1],"12.6 µM [falling, partial curve]"
Cc1ccc(NC(=O)c2ccc3oc(=O)c(S(=O)(=O)c4ccccc4)cc3c2)cc1C,AC50,[2],"6.31 µM [rising, full curve]"
same,AC50,[3],"15.8 µM [falling, partial curve]"
O=C(CSc1nnc(CNc2ccc(F)cc2)n1Cc1ccccc1)NCc1ccco1,AC50,[1],"20 µM [falling, single point]"
Cc1ccc(NC(=O)Cn2nnc(-c3nc(-c4ccncc4)no3)c2N)c(C)c1,AC50,[1],"39.8 µM [rising, partial curve]"
COc1ccccc1NC(=O)C1=C(C)Nc2nc(SCc3ccc(Cl)cc3)nn2C1c1ccccc1Cl (stereo not drawn),AC50,[1],"3.16 µM [falling, single point]"
CC(NC(=O)C1CCN(C(=O)c2ccc(-n3ccc4ccccc43)s2)CC1)c1ccccc1 (stereo not drawn),AC50,[1],"3.16 µM [falling, partial curve]"
CCOC(=O)C1CCN(C(=O)CN2c3ccc(C(C)C)cc3-c3ccccc3S2(=O)=O)CC1,AC50,[1],"25.1 µM [falling, partial curve]"

# Not a retest: entries from further up.
compound,measurement,setting,value
O=S1(=O)C=C(Sc2nc3ccccc3s2)c2ccccc21,AC50,[2],"10 µM [falling, partial curve]"
same,AC50,[3],"0.794 µM [falling, partial curve]"
CCOC(=O)c1ccc(NC(=O)C(CC)Sc2nnc3c4ccccc4n(C)c3n2)cc1 (stereo not drawn),AC50,[1],"6.31 µM [falling, partial curve, poor fit]"
COc1ccc(S(=O)(=O)N2CCC(n3cnc4cc(C(F)(F)F)ccc43)CC2)cc1,AC50,[1],"25.1 µM [falling, partial curve]"
Cc1ccc(Cl)cc1-n1ncc2c(NC3CCCCC3)ncnc21,AC50,[1],"3.98 µM [falling, partial curve]"
CC(C)NC(=O)c1cc(-c2ccc(Br)cc2)on1,AC50,[1],"10 µM [falling, partial curve]"
CCOC(=O)C1CCCN(S(=O)(=O)c2ccc3c(c2)CCN3C(=O)CC)C1 (stereo not drawn),AC50,[1],"15.8 µM [falling, partial curve]"
O=C(CSc1nncn2c1cc1occc12)Nc1ccccc1C(F)(F)F,AC50,[1],"15.8 µM [falling, partial curve]"
Cc1cccc2sc(N3CCN(C(=O)CS(=O)(=O)c4ccc(F)cc4)CC3)nc12,AC50,[1],"39.8 µM [falling, partial curve]"
CCOC(=O)c1c(C)[nH]c(CCC(=O)Nc2c(Cl)cc(OC)cc2OC)c1C,AC50,[1],"5.01 µM [falling, partial curve]"
Cc1c(Cl)ccc2c1NC(=O)[C@]21[C@@H]2C(=O)N(Cc3ccccc3)C(=O)[C@@H]2[C@@H]2CCCN21,AC50,[1],"12.6 µM [falling, partial curve]"
CCc1ccc(S(=O)(=O)c2cnc3ccc(OC)cc3c2N2CCCC(C)C2)cc1 (stereo not drawn),AC50,[1],"25.1 µM [falling, single point]"
Cc1cc(C(=O)N2CCN(c3ccc(F)cc3)CC2)c2c(C)nn(-c3cccc(Cl)c3C)c2n1,AC50,[1],"15.8 µM [falling, partial curve]"
COc1ccccc1-c1cc(N)n(S(=O)(=O)c2ccc(F)c(C)c2)n1,AC50,[1],"2.51 µM [falling, full curve]"
CC(C)(C)OC(=O)N[C@@H](Cc1ccccc1)c1nnc(S(=O)(=O)Cc2ccccc2)o1,AC50,[1],"5.01 µM [falling, partial curve]"
O=C(c1cc(-c2ccncc2)nc2ccc(Cl)cc12)N1CCN(C(=O)C2CCCO2)CC1 (stereo not drawn),AC50,[1],"7.94 µM [falling, partial curve]"
COc1ccc(N(CC(=O)Nc2cccc(SC)c2)S(C)(=O)=O)cc1Cl,AC50,[1],"12.6 µM [falling, partial curve]"
